Assay results taken from PMC11879040, “Advancing systemic toxicity risk assessment: Evaluation of a NAM-based toolbox approach” (Toxicological Sciences, 2024).

Test: Bioactivity:exposure ratio (BER) and toolbox decision (low-risk / uncertain risk)
Design: species or system human

Structure (SMILES) | Toolbox decision (low-risk benchmark scenario) (driven by HTTr BIFROST HepaRG and MCF7 PoDs) | BER from inhibition of the carbonic anhydrase II enzyme (L2)
CC(C)(CO)C(O)C(=O)NCCCO (centres unmarked) [Panthenol, 2,4-Dihydroxy-N-(3-hydroxypropyl)-3,3-dimethylbutanamide] | uncertain risk | –
CC1(C)O[C@@H]2[C@@H](CO[C@@]3(COS(N)(=O)=O)OC(C)(C)O[C@@H]23)O1 [Topiramate, [(3aS,5aR,8aR,8bS)-2,2,7,7-Tetramethyltetrahydro-2H,3aH,7H-bis[1,3]dioxolo[4,5-b:4',5'-d]pyran-3a-yl]methyl sulfamate (non-preferred name)] | – | BER<L2 threshold
